Measurements: the supplement of paper PMC10849652
The list shows a part of the results.

Sequences of proteins named here, by UniProt entry; tags and fusion partners are left off. A change or cut given only in a name is not applied to a line headed by its entry.
UniProt Q9Y4K4: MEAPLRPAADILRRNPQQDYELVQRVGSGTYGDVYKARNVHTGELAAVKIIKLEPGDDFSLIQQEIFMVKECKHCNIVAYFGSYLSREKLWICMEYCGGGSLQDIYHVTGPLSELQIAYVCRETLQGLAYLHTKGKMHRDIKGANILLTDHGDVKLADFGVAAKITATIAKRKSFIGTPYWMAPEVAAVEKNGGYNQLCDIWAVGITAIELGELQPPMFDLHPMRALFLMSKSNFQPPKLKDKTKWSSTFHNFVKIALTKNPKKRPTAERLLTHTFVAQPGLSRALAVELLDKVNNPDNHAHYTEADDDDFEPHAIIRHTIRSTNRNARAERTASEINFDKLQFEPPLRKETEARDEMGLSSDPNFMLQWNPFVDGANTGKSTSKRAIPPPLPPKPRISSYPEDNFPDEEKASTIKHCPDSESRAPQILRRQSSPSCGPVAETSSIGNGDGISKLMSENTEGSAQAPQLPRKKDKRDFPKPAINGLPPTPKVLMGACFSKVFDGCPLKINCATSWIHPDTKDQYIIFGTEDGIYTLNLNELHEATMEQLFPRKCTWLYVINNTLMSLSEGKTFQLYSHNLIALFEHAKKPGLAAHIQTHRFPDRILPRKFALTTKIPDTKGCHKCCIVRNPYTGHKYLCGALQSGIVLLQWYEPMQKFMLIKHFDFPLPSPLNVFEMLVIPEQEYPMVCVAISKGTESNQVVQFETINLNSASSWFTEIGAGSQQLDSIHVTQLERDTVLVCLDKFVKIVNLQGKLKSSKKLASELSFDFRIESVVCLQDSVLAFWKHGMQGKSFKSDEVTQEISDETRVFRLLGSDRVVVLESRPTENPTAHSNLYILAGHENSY
UniProt Q5VWZ2: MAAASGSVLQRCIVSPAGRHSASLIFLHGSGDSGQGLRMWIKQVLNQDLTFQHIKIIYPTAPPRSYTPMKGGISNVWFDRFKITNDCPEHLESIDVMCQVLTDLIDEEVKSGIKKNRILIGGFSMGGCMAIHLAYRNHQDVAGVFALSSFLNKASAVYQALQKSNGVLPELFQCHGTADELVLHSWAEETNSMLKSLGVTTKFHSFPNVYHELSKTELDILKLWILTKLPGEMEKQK
UniProt P43366: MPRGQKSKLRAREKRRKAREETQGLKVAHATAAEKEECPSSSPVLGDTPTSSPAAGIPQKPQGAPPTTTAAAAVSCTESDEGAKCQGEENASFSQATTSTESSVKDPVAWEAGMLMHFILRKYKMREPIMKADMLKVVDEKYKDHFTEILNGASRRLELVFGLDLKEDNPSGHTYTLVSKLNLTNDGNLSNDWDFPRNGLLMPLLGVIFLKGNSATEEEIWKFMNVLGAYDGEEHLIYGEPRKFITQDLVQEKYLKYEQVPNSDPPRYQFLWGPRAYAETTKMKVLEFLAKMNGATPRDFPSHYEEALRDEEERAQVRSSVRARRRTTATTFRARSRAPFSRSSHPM
UniProt Q9HD34: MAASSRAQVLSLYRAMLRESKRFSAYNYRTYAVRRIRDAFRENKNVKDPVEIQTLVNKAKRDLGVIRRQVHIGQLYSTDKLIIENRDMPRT
UniProt P28482, whole entry, looked up: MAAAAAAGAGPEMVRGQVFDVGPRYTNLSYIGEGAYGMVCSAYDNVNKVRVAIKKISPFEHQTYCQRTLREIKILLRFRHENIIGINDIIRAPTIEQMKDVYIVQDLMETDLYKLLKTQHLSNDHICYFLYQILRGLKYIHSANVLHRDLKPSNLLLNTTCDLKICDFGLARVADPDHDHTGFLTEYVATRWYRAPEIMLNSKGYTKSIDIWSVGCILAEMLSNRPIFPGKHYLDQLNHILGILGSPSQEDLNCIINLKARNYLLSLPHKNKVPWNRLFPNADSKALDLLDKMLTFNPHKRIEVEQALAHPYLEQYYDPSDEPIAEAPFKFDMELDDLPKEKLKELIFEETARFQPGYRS
UniProt P62310: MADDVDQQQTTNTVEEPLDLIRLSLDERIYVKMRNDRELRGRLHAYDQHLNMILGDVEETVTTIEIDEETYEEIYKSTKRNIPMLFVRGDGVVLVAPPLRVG
UniProt O75608: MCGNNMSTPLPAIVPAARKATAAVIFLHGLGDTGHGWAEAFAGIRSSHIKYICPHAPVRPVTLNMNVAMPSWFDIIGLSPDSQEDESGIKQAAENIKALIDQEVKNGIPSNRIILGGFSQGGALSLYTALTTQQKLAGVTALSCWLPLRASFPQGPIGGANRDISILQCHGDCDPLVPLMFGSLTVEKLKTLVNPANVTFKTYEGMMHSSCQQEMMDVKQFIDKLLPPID
UniProt Q9NU23: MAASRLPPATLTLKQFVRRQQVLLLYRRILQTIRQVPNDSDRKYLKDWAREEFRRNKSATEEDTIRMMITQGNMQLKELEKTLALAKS
UniProt P55145: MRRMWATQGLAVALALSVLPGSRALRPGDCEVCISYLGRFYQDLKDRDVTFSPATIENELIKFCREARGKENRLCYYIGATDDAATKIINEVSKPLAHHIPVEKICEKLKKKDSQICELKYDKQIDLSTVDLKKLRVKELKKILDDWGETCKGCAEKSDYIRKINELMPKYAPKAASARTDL
UniProt P49006: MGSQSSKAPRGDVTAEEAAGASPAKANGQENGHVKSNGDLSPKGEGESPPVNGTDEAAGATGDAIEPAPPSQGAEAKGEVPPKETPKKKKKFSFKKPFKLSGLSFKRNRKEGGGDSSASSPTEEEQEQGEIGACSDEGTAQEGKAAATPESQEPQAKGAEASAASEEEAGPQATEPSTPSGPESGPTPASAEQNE
UniProt P07948: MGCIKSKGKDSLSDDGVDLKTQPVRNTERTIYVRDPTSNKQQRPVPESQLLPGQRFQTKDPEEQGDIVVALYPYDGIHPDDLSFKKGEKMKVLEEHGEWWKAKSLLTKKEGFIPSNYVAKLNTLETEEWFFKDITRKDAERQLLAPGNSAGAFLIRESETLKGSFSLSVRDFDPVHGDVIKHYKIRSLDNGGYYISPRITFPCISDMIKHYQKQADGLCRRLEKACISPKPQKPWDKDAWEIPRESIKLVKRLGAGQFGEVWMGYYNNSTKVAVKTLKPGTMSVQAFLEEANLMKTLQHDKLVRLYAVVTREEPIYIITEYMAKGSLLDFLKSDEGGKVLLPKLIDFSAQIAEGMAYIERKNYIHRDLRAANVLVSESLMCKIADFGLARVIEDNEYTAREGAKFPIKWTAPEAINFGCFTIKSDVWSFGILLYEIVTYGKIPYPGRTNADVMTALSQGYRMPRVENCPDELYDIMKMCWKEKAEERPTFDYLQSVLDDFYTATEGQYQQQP
UniProt Q9Y2U5: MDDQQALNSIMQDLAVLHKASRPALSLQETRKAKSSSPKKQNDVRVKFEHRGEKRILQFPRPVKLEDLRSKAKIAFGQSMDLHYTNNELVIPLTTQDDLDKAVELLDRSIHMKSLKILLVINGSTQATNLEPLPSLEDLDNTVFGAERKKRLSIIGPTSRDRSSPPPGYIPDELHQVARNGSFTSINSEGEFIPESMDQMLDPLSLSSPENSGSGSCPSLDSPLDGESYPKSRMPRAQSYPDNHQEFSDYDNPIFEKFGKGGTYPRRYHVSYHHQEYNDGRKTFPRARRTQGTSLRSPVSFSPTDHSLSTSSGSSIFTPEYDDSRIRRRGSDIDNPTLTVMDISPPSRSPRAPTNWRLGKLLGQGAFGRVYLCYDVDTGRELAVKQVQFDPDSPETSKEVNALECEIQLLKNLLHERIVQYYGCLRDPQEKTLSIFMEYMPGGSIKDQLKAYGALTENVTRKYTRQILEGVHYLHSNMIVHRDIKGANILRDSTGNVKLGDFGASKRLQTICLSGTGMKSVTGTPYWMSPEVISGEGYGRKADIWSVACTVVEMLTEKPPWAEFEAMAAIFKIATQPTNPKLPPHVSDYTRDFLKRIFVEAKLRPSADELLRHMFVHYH
UniProt O95777: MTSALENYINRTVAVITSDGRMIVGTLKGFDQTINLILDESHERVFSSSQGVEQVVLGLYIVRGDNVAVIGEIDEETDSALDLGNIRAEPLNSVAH
UniProt Q96GA3: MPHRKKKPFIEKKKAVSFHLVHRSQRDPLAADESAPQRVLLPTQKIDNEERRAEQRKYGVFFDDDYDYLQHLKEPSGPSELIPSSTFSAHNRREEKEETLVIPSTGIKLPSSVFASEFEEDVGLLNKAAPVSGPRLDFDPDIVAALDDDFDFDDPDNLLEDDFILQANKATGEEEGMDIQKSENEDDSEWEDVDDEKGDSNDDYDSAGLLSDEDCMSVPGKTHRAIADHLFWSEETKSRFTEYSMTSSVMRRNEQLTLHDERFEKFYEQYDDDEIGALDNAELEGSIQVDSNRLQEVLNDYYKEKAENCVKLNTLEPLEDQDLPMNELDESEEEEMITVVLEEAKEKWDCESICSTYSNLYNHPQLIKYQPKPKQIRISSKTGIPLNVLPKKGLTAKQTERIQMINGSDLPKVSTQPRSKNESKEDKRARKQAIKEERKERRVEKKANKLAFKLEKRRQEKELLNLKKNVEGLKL
UniProt Q32MZ4: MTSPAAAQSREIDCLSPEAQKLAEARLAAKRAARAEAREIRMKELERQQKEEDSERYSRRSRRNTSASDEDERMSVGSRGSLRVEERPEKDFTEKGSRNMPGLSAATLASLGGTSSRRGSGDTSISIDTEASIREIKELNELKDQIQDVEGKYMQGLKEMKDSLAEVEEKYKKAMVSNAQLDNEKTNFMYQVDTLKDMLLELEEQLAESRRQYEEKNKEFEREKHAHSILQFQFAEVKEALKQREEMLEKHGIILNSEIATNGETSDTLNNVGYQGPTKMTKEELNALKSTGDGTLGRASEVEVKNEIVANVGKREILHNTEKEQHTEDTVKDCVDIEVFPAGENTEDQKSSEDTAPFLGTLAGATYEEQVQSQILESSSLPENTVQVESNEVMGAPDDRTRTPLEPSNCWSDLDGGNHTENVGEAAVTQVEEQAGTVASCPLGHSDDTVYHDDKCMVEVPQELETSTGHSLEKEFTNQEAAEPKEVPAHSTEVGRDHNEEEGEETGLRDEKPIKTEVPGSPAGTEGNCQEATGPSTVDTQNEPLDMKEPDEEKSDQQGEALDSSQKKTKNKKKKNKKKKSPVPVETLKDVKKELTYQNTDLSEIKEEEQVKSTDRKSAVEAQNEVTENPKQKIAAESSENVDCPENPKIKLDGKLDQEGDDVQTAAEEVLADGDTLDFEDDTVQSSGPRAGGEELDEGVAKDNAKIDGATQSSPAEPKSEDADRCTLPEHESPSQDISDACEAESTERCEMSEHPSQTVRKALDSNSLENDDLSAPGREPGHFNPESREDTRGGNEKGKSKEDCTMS
UniProt Q96S90: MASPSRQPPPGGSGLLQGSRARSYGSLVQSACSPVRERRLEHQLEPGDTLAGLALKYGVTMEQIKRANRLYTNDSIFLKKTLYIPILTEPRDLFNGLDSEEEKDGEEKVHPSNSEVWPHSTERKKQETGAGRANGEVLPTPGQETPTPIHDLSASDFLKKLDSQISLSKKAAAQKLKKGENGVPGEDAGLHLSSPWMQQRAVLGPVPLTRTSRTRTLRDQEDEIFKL
UniProt Q9Y333: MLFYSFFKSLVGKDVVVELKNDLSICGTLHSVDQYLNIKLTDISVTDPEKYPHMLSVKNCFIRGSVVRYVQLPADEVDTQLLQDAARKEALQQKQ
UniProt O00462: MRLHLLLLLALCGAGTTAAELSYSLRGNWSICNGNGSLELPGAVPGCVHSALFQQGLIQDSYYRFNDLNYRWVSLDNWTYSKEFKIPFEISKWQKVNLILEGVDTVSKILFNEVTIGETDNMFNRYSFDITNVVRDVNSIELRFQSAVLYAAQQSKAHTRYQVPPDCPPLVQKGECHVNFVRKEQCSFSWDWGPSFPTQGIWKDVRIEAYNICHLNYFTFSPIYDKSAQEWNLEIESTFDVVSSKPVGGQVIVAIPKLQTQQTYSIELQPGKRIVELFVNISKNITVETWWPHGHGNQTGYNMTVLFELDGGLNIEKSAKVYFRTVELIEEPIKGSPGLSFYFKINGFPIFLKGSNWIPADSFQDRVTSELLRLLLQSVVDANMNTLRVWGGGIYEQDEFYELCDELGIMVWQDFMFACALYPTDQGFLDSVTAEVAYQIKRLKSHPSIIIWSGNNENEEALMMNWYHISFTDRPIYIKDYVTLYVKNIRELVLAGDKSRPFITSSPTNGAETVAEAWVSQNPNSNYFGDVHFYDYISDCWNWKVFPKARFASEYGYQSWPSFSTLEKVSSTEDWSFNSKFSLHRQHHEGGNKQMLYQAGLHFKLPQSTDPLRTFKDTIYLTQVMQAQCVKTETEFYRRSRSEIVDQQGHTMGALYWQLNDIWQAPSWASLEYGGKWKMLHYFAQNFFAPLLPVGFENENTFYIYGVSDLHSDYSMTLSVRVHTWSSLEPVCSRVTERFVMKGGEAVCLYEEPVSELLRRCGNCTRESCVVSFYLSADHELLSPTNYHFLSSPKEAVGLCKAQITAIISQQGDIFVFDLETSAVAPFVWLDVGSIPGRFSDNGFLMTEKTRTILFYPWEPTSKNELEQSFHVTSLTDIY

How the values were obtained:
Test in all cases: log2 fold change, soluble protein after heating vs DMSO (PISA); higher = thermal stabilisation; K562 cells, 10 uM, 30 min; active = over 0.2 and 3.5 SD of the protein, either way, in both replicates (recomputed)
[1] = compound: NC(=O)Nc1cc(-c2cccc(F)c2)sc1C(=O)N[C@H]1CCCNC1
In short: (§1)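 K562 cells at 2×10^6 cells/mL were given 10 μM compound for 30 min. Aliquots then went through 3 min of heating across 48°C-58°C, were pooled, and were extracted in PBS with 0.5% NP-40 at 4°C, and the supernatant after 21,000xg for 90 min was quantified by TMTpro 16plex LC-MS/MS with channel sums equalised. Thermal stability relative to control samples, from duplicates, is given as log2 fold change.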

[2] = compound: NC(=O)c1cnc(N[C@@H]2CCCC[C@@H]2N)nc1Nc1cccc(-n2nccn2)c1
In short: as §1

[3] = compound: NC1(c2ccc(-c3nc4ccn5c(=O)[nH]nc5c4cc3-c3ccccc3)cc2)CCC1
In short: as §1

[4] = compound: NCC(=O)Nc1ccc(-n2nc(C(F)(F)F)cc2-c2ccc3c(ccc4ccccc43)c2)cc1
In short: as §1

entinostat = compound: Nc1ccccc1NC(=O)c1ccc(CNC(=O)OCc2cccnc2)cc1 [entinostat]
In short: as §1

vorinostat = compound: O=C(CCCCCCC(=O)Nc1ccccc1)NO [vorinostat]
In short: as §1

citarinostat = compound: O=C(CCCCCCNC(=O)c1cnc(N(c2ccccc2)c2ccccc2Cl)nc1)NO [citarinostat]
In short: as §1

silmitasertib = compound: O=C(O)c1ccc2c(c1)nc(Nc1cccc(Cl)c1)c1ccncc12 [silmitasertib]
In short: as §1

[5] = compound: O=C1NC(=O)C(c2cnc3ccccn23)=C1c1cn2c3c(cc(F)cc13)CN(C(=O)N1CCCCC1)CC2
In short: as §1

[6] = compound: c1cc(OCCN2CCCCC2)cc(-c2n[nH]c3ccc(-c4nnc[nH]4)cc23)c1
In short: as §1

entospletinib = compound: c1cn2cc(-c3ccc4cn[nH]c4c3)nc(Nc3ccc(N4CCOCC4)cc3)c2n1 [entospletinib]
In short: as §1

Target	log2 fold change [1]	log2 fold change [2]	log2 fold change [3]	log2 fold change [4]	log2 fold change (entinostat)	log2 fold change (vorinostat)	log2 fold change (citarinostat)	log2 fold change (silmitasertib)	log2 fold change [5]	log2 fold change [6]	log2 fold change (entospletinib)
MAP1LC3B2 (UniProt A6NCE7)	inactive: -0.023	inactive: -0.022	inactive: -0.128	inactive: -0.085	inactive: 0.012	inactive: -0.058	inactive: 0.046	inactive: -0.015	inactive: -0.001	inactive: -0.103	
MAP4K5 (UniProt Q9Y4K4)	inactive: 0.217	inactive: 0	inactive: -0.002	inactive: -0.097	inactive: -0.012	inactive: 0.074	inactive: 0.02	inactive: -0.09	inactive: 0.073	inactive: 0.026	
MAGEA9 (UniProt P43362)	inactive: -0.017	inactive: -0.027	inactive: -0.243	inactive: 0.033	inactive: 0	inactive: 0.132	inactive: 0.013	inactive: 0.052	inactive: -0.079	inactive: -0.106	
MACC1 (UniProt Q6ZN28)	inactive: -0.133	inactive: -0.071	inactive: -0.175	inactive: -0.044	inactive: 0.043	inactive: -0.031	inactive: 0.073	inactive: -0.066	inactive: -0.079	inactive: -0.106	inactive: -0.003
LSM14A isoform 2 (UniProt Q8ND56)	inactive: -0.11	inactive: -0.039	inactive: 0	inactive: -0.089	inactive: -0.06	inactive: -0.011	inactive: -0.095	inactive: -0.023	inactive: -0.044	inactive: -0.03	inactive: -0.026
LYPLAL1 (UniProt Q5VWZ2)	inactive: -0.013	inactive: -0.077	inactive: -0.076	inactive: -0.022	inactive: 0.037	inactive: 0.028	inactive: 0.056	inactive: 0.015	inactive: -0.062	inactive: -0.006	inactive: -0.03
MAGEB1 (UniProt P43366)	inactive: 0.108	inactive: 0.035	inactive: 0.217	inactive: 0.115	inactive: -0.014	inactive: 0.053	inactive: -0.037	inactive: 0.231	inactive: 0.336	inactive: -0.239	inactive: 0.082
LYRM4 (UniProt Q9HD34)	inactive: 0.027	inactive: 0.012	inactive: -0.037	inactive: -0.042	inactive: 0.032	inactive: 0.005	inactive: 0.053	inactive: -0.01	inactive: -0.013	inactive: 0.01	inactive: -0.02
MAPK1 (UniProt P28482)	inactive: 0.022	inactive: -0.028	inactive: -0.015	inactive: 0.032	inactive: -0.023	inactive: 0.004	inactive: 0.05	inactive: -0.026	inactive: 0.022	inactive: 0.011	inactive: -0.047
LSM3 (UniProt P62310)	inactive: 0.006	inactive: 0.017	inactive: -0.058	inactive: 0.117	inactive: -0.019	inactive: -0.095	inactive: 0.048	inactive: -0.059	inactive: -0.075	inactive: -0.003	inactive: 0.008
MAGEB2 (UniProt O15479)	inactive: 0.141	inactive: 0.025	inactive: 0.232	inactive: 0.11	inactive: -0.023	inactive: 0.014	inactive: -0.12	inactive: 0.109	inactive: 0.126	inactive: 0.466	inactive: 0.262
LYPLA1 (UniProt O75608)	inactive: -0.058	inactive: -0.036	inactive: -0.041	inactive: -0.034	inactive: 0.023	inactive: -0.117	inactive: 0.015	inactive: -0.041	inactive: -0.019	inactive: -0.006	inactive: 0.019
MAPKAPK2 (UniProt P49137)	inactive: 0.12	inactive: 0.035	inactive: -0.14	inactive: 0.034	inactive: 0.018	inactive: 0.04	inactive: 0.058	inactive: 0.06	inactive: -0.128	inactive: -0.006	
LYRM2 (UniProt Q9NU23)	inactive: 0.041	inactive: -0.016	inactive: -0.019	inactive: -0.034	inactive: 0.043	inactive: -0.064	inactive: 0.118	inactive: 0.022	inactive: -0.059	inactive: -0.031	inactive: -0.058
MANF (UniProt P55145)	inactive: 0.072	inactive: -0.013	inactive: -0.013	inactive: 0.025	inactive: 0	inactive: -0.042	inactive: 0.001	inactive: 0.002	inactive: -0.02	inactive: -0.005	inactive: -0.015
MAGED2 (UniProt Q9UNF1)	inactive: 0.009	inactive: -0.047	inactive: -0.231	inactive: -0.064	inactive: -0.039	inactive: -0.005	inactive: 0.062	inactive: -0.008	inactive: -0.013	inactive: -0.065	inactive: -0.272
MARCKSL1 (UniProt P49006)	inactive: -0.02	inactive: 0.028	inactive: -0.01	inactive: 0.002	inactive: 0.075	inactive: -0.062	inactive: 0.162	inactive: -0.115	inactive: -0.035	inactive: 0.089	
MACO1 (UniProt Q8N5G2)	inactive: -0.023	inactive: -0.01	inactive: -0.021	inactive: -0.051	inactive: -0.011	inactive: 0.002	inactive: -0.024	inactive: -0.014	inactive: 0.048	inactive: -0.023	inactive: 0.022
LYN (UniProt P07948)	active: 0.385	inactive: 0.048	inactive: -0.048	inactive: -0.016	inactive: -0.006	inactive: 0.058	inactive: 0.017	inactive: 0.176	inactive: 0.022	inactive: 0.143	
MAP3K2 (UniProt Q9Y2U5)	inactive: -0.06	inactive: 0.15	inactive: 0.226	inactive: 0.007	inactive: 0.006	inactive: -0.15	inactive: 0.16	inactive: 0.113	inactive: -0.001	inactive: -0.023	inactive: -0.31
LSM8 (UniProt O95777)	inactive: 0.002	inactive: -0.002	inactive: -0.022	inactive: 0	inactive: -0.046	inactive: -0.004	inactive: 0.051	inactive: -0.006	inactive: 0.052	inactive: -0.06	inactive: -0.033
LTV1 (UniProt Q96GA3)	inactive: 0.006	inactive: 0.008	inactive: 0.003	inactive: 0.041	inactive: 0.034	inactive: -0.005	inactive: -0.038	inactive: 0.147	inactive: 0.132	inactive: -0.16	
LRRFIP1 (UniProt Q32MZ4)	inactive: -0.027	inactive: 0.015	inactive: 0.056	inactive: 0.024	inactive: -0.042	inactive: -0.079	inactive: -0.007	inactive: 0.049	inactive: 0.01	inactive: -0.013	
LYSMD1 (UniProt Q96S90)	inactive: 0.134	inactive: 0.012	inactive: -0.137	inactive: -0.021	inactive: 0.031	inactive: -0.007	inactive: -0.03	inactive: 0.005	inactive: -0.03	inactive: -0.016	inactive: -0.104
LSM2 (UniProt Q9Y333)	inactive: 0.017	inactive: -0.013	inactive: -0.033	inactive: 0.009	inactive: -0.054	inactive: 0.021	inactive: 0.053	inactive: 0.012	inactive: -0.025	inactive: -0.042	inactive: -0.037
MANBA (UniProt O00462)	inactive: 0.001	inactive: 0.017	inactive: -0.144	inactive: -0.008	inactive: -0.02	inactive: -0.022	inactive: 0.056	inactive: 0.014	inactive: -0.003	inactive: -0.122	inactive: 0.035
MAIP1 (UniProt Q8WWC4)	inactive: -0.061	inactive: -0.06	inactive: -0.129	inactive: -0.009	inactive: -0.015	inactive: 0.017	inactive: 0.076	inactive: -0.012	inactive: -0.085	inactive: -0.012	
MALSU1 (UniProt Q96EH3)	inactive: -0.024	inactive: -0.07	inactive: 0	inactive: -0.035	inactive: -0.031	inactive: -0.173	inactive: 0.008	inactive: 0.01	inactive: 0.002	inactive: -0.041	inactive: 0.039

Looked up above:
Value for MANBA (UniProt O00462) under log2 fold change [6]: inactive: -0.122
Value for LSM14A isoform 2 (UniProt Q8ND56) under log2 fold change [6]: inactive: -0.03
